# Experimental data published in patent publication US20240026039A1, “PECTIN MODIFIED WITH GALLOL DERIVATIVE AND USE THEREOF” (UIF (UNIVERSITY INDUSTRY FOUNDATION), YONSEI UNIVERSITY, priority 2021, published 2024).
# At least one structure is not confirmed: it was looked up by name or label, or the drawing left a doubt.
# Test system: stomatitis site of gums of diabetic rats
# Experiment: Rat diabetic stomatitis model (streptozotocin, acetic acid gum damage)
# Type: in vivo
# Details: day 7 after treatment
compound,measurement,value
"CC1(C)O[C@@H]2C[C@H]3[C@@H]4CCC5=CC(=O)C=C[C@]5(C)[C@@]4(F)[C@@H](O)C[C@]3(C)[C@]2(C(=O)CO)O1 [TA, triamcinolone acetonide]",inflammatory cells in tissue damage site (CD11b immunostaining),a number of inflammatory cells
